Measurements reported in PubChem BioAssay AID504791 (Drosophila RNAi Screening Center, 2011)
Assay: 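Genes of the fly required for silencing by miRNA, siRNA or endo-siRNA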 (primary screen). Cell system: Drosophila S2-derived reporter cells. Reagents: long dsRNA against Drosophila genes, about 150-250 ng dsRNA per well (siRNA assay); about 80-120 ng (miRNA assay). Duration: about 5 days (siRNA assay); about 4 days (miRNA assay). Challenge: copper sulfate induction of reporters: 25 µM (siRNA assay); 200 mM stated (miRNA assay), 1-2 days before reading. Measured: 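Dual luciferase assay: Renilla to firefly signal ratio in each well, scaled to the mean ratio of its plate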. Rule for the call: 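a well was a first-pass pick when its plate-scaled ratio rose above 1.5 (siRNA assay) or 1.6 (miRNA assay), or dropped below 0.6; a gene counted only if two separate dsRNAs agreed on retest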.
The deposit covers about 23,000 reagents; below is an unselected part of those that have a named target and a result. Over the whole deposit, 199 (0.86%) were called active. 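Plate-scaled ratios behind the calls are not deposited; printed light signals are raw; many rows marked increased or decreased are still called inactive.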 Reagents against one gene are numbered here. Names joined by + are all predicted targets of the reagent. The record does not give: the direction of the score.

target gene	dsRNA no.	stable assay Renilla, run 1 (luminescence)	stable assay firefly, run 1 (luminescence)	activity call
CG12644 (retired record)	1	5067	4.22e5	inactive
Mid1	1	4371	2.66e5	inactive
Mid1	2	6043	4.46e5	inactive
Mid1	3	6260	3.05e5	inactive
Mid1	4	4480	3.82e5	inactive
Mid1	5	4180	2.96e5	inactive
CG17261	1	8297	4.47e5	inactive
Acsl	1	7710	3.06e5	inactive
Alp5	1	6659	3.04e5	inactive
Cen	1	7538	6.93e5	inactive
PGRP-LA	1	5736	4.78e5	inactive
PGRP-LA	2	6503	4.50e5	inactive
CG14346	1	7000	3.37e5	inactive
CG13748	1	5842	3.21e5	inactive
betaggt-I	1	7688	5.08e5	inactive
dpr15	1	4955	5.23e5	inactive
dpr15	2	5480	3.37e5	inactive
dpr15	3	5960	3.49e5	inactive
Bro	1	6915	3.56e5	inactive
myo	1	6686	3.37e5	inactive
CG30031 + deltaTry + gammaTry	1	5875	3.37e5	inactive
zyd	1	5263	2.85e5	inactive
Edem1	1	7432	4.07e5	inactive
CG18596	1	8651	4.12e5	inactive
CG11899	1	6602	5.11e5	inactive
nuf	1	9046	3.65e5	inactive
nuf	2	3779	2.95e5	inactive
nuf	3	5219	3.38e5	inactive
CG43347	1	5236	3.96e5	inactive
CG43347	2	3924	2.49e5	inactive
CG43347	3	3011	3.33e5	inactive
CG43347	4	4659	4.00e5	inactive
CG43347	5	3767	3.14e5	inactive
CG43347	6	7022	5.33e5	inactive

2 entries from above, set out differently.
Mid1 #5: stable assay Renilla, run 1 (luminescence) = 4180; stable assay firefly, run 1 (luminescence) = 2.96e5; activity call = inactive
CG17261: stable assay Renilla, run 1 (luminescence) = 8297; stable assay firefly, run 1 (luminescence) = 4.47e5; activity call = inactive
